Results as given in article PMC11476691, “ATM1, an essential conserved transporter in Apicomplexa, bridges mitochondrial and cytosolic [Fe-S] biogenesis” (PLOS Pathogens, 2024).
These are yes or no findings as the source states them, for the method shown. In cells and extracts the contact can be indirect. Tags and fused reporters may be left off the sequences shown.

T1: 6XHis-EcEngA (UniProt P0A6P5)
T1 sequence: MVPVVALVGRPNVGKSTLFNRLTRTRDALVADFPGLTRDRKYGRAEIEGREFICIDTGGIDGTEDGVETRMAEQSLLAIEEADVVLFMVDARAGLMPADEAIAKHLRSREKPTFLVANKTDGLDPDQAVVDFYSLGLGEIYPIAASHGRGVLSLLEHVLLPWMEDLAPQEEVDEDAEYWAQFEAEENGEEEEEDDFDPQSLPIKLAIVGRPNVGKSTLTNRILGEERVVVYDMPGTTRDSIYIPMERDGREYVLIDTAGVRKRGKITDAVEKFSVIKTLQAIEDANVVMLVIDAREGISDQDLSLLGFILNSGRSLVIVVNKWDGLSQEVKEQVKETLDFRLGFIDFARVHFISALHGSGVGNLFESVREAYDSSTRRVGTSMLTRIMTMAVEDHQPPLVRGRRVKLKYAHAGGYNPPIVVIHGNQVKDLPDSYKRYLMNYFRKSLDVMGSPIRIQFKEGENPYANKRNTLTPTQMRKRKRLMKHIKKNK

B1: PfIscA2 (protein, UniProt O97297 1-404)
chain: MFNNFLNMYMCTLAEKLCKFKKNNFNNIHRNNNFYRDNNFYRDNNFYRDNNFYRDNNFYRDNNLYTNNNLYRDNNFYRDNNFYRDNNFYRDNNLYTNNNLYRDNNLYTNNNLYRDNNFYNITLRKFHFIQTISNNNFNFEIIKKYGDVINKIMFIHTQKKNKQERFMFNNKKYIKRKEYILNDLNEFISIIPHPEINNEITNNSNQKKNKDNKQNVLSTNQQIITNYNLNHKENVTSNLNFNNKEEDEKKLDKLLKKRNIKKRDIVTITEEAKEELKKIISINKKENNNNYNNMNTICSDNHNDMNTICNDKNILKLFFITKGCNGLTHSFNFISKKDIHKEDEIIYDDQNNILLVIDKNCILYVINTTLDYYKDDLTEKFIFKNPNITSICPCGTSFHFSKKK
B2: PfIscU (protein, UniProt Q8IKT4 1-162)
chain: MKSKILCNLFKGKSCICLYTNCLNENNVNKCYYNLVRNYSDHVKDHFNKPRNVGSFDKNEKNIGTSIVGKASCGDVIKLQLKIENDVIKDARFMAFGCGSAIASSSYATELIKGKTIDEALKIKNNDIASHLSLPPVKIHCSLLAEDAIKHAIKNYREKVLT

Target: T1, 6XHis-EcEngA
Assay: pull-down; 6XHis-tagged bait bound to Ni-NTA beads; P. falciparum lysate; western blot of the eluates; only the target purified

Binder | binding
B1 | no binding
B2 | no binding
